# Source: the supplement of paper PMC12872613
# Counter-ions that a name gives are not always drawn. The list shows a part of the results. Rule as the data show it: active = 0.7 or more and inactive = the rest. Single values are uncertain, as repeats are few or missing.
# System: MiaPaCa-2 CLSA-25
# Assay: cell death relative to DMSO vehicle (fraction); higher = more cytotoxic
# Conditions: 5 µM; treatment time 48 h; medium cystine 25 µM
row,SMILES,cell death
1,CC(C)(CO)C(O)C(=O)NCCCO (stereo not given) [Panthenol],inactive: 0.0465
2,N=C(N)Nc1ccc(C(=O)Oc2ccc3cc(C(=N)N)ccc3c2)cc1 [Nafamostat mesylate],inactive: 0.124
3,O=C(O)c1cc(O)c2c(c1)[C@H]([C@H]1c3cc(C(=O)O)cc(O)c3C(=O)c3c(O[C@@H]4O[C@H](CO)[C@@H](O)[C@H](O)[C@H]4O)cccc31)c1cccc(O[C@@H]3O[C@H](CO)[C@@H](O)[C@H](O)[C@H]3O)c1C2=O [Sennoside A],inactive: 0.0337
4,O=C(Nc1cnccc1Cl)N1CCN(Cc2ccc3c(c2)OC(F)(F)O3)CC1,inactive: 0.615
5,CCOC(=O)[C@H](CCc1ccccc1)N[C@@H](C)C(=O)N1CCC[C@H]1C(=O)O [Enalapril Maleate],inactive: 0.18
6,O=C(Nc1cc(Cl)cc2c1[nH]c1cnccc12)c1cccnc1,inactive: 0.0883
7,Nc1nc2[nH]cc(CCc3ccc(C(=O)N[C@@H](CCC(=O)O)C(=O)O)cc3)c2c(=O)[nH]1 [Pemetrexed Disodium Hydrate],inactive: 0.0535
8,COC(=O)CN(c1ccc(CN(c2ccc(OCc3ccc(C)cc3)c(C(=O)OC)c2)S(=O)(=O)Cc2ccccc2)cc1)S(C)(=O)=O,inactive: 0.147
9,Cc1cccc(C)c1OCC(=O)N[C@@H](Cc1ccccc1)[C@@H](O)C[C@H](Cc1ccccc1)NC(=O)[C@H](C(C)C)N1CCCNC1=O [Lopinavir],inactive: 0.177
10,CCOc1ccccc1-n1c(C(C)N2CCN(C(=O)COc3ccc(Cl)cc3)CC2)nc2ccccc2c1=O (stereo not given) [Erastin],inactive: 0.552
